Experimental data: PMC7661038
Results are given in words; binding and its absence hold for the method and conditions named. In cells and extracts the contact can be indirect.

Target: GST alone
Assay: pull-down; 20 µg of GST fusion protein on glutathione sepharose beads incubated 2 hr at 4°C with 35S-labelled in vitro translated Zc3h10; three washes with binding buffer; SDS-PAGE and autoradiography; only the target purified

B1: [35S]-Zc3h10 (protein, UniProt Q8R205 1-435)
chain: MPDRDSYANGTGSSGGGPGGGGSEEASGAGTGSGGATSDAICRDFLRNVCKRGKRCRYRHPDMSEVSNLGVSKNEFIFCHDFQNKECSRPNCRFIHGSKEDEDGYKKTGELPPRLRQKVAAGLGLSPADLPNGKEEVPICRDFLKGDCQRGAKCKFRHLQRDFEFDARGGGGTGGGGSTGSAPPGRRHDLYDIYDLPERGFEDHEPGPKRRRGGCCPPDGPHFESYECNLAPLRGVECRLLEEENALLRKRVEELKKQVSNLLATNEVLLEQNAQFRNQAKVMTLSSTAPATEQTLAPTVGTVATFNHGIAQTHTTLSSQALQPRPVSQQELVAPTGAPAAPPTNAAPPAAPPPPPPHLNPEITPLSAALAQTIAQGMAPPPVSMAPVAVSVAPVAPVAVSMAQPLAGITMSHTTTPMVTYPIASQSMRITAMPH
modifications: 35S-labelled
**Q.** How did the binding turn out when B1 was run?
**A.** no binding (tested: 20 µg of GST fusion proteins)
